Experimental data reported in article PMC6102278.
These are yes or no findings as the source states them, for the method shown. In cells and extracts the contact can be indirect. Some entries that bind do so weakly or less than the wild type.

Sequences of proteins named here, by UniProt entry; tags and fusion partners are left off. A change or cut given only in a name is not applied to a line headed by its entry.
UniProt P25445: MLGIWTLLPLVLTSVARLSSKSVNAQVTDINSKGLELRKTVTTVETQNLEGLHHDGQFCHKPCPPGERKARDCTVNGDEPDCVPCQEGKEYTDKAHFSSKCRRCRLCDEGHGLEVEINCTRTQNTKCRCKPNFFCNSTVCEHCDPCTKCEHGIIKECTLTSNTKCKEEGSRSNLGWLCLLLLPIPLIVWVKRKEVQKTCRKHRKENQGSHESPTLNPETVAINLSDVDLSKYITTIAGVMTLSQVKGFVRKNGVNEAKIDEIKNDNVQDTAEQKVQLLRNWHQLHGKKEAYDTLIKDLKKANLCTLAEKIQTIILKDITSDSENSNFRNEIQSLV
UniProt P40763: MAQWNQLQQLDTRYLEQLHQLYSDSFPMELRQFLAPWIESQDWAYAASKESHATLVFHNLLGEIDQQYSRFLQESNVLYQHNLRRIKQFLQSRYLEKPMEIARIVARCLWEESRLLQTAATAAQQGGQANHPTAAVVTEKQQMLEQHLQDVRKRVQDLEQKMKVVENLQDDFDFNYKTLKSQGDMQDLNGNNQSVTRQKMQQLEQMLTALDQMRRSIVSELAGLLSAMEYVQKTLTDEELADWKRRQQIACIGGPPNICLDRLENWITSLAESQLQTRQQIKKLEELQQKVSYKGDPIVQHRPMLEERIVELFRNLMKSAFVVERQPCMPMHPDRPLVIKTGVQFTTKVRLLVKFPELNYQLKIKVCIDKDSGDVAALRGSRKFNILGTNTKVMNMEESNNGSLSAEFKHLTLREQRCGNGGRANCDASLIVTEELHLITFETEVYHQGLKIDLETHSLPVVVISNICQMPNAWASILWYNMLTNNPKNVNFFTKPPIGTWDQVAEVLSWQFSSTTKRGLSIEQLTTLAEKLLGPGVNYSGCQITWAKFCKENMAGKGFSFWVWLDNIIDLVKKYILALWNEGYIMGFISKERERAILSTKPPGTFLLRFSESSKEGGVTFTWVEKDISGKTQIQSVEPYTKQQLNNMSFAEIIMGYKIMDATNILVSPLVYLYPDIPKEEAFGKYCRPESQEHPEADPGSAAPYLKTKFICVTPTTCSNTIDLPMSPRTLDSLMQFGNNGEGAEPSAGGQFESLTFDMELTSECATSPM
UniProt P07947: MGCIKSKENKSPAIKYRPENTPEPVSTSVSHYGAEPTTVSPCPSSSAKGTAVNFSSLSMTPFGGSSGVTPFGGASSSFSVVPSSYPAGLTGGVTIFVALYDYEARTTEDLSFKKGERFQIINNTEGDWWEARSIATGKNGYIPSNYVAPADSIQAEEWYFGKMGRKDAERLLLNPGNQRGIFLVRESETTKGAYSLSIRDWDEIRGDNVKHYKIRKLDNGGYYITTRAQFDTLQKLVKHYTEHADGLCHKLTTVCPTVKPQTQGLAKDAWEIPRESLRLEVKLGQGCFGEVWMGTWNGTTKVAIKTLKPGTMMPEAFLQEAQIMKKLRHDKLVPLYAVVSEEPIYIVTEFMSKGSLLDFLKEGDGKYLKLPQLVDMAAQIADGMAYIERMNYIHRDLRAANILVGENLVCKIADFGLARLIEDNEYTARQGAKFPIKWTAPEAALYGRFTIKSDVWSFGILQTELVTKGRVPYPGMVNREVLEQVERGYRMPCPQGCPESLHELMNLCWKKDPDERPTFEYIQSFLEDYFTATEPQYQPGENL

Tests used:
[1] = target: Fas.Y291D (pY291 Fas proxy, pro-survival form of Fas) (UniProt P25445); test: co-IP; Fas immunoprecipitated with anti-Fas (APO-1-3) on protein G beads from the postnuclear supernatant of SW480 stable cell lines, 4 °C, 18 h; cells synchronized 24 h, without or with 10 ng/ml EGF for 5 minutes; immunoblotting
[2] = target: pY1068 EGFR (activated EGFR), nuclear fraction of SW480 (human (endogenous in SW480)) (UniProt P00533); test: co-IP; EGFR co-immunoprecipitation on nuclear fractions of synchronized SW480 cells treated with EGF for 15 minutes as in Figure 6C; immunoblotting
[3] = target: Fas (TNFRSF6/CD95), endogenous, nuclear fraction of SW480 cells (human (endogenous in SW480)) (UniProt P25445); test: co-IP; IP-FCM (immunoprecipitation detected by flow cytometry): polystyrene beads coated with anti-Fas (Apo-1-3) incubated with lysate of the nuclear fraction of SW480 cells; beads stained with antibodies against pY1068 EGFR or pY705 STAT3 and read by flow cytometry
[4] = target: pY291 Fas (Fas phosphorylated at Y291), nuclear fraction of SW480 cells overexpressing Fas (UniProt P25445); test: co-IP; Fas co-immunoprecipitation on nuclear fractions of synchronized SW480 cells overexpressing Fas, treated with indicated concentrations of EGF for 15 minutes; immunoblotting

Row | Substance | binding [3] | binding [4] | binding [1] | also measured
1 | epidermal growth factor receptor (EGFR/HER1/ErbB1), endogenous in SW480 (from UniProt P00533 25-1210) |  |  | binds | 
2 | pY291 Fas (Fas phosphorylated at Y291), nuclear fraction of SW480 cells overexpressing Fas (from UniProt P25445 26-335) (receptor) |  |  |  | binding [2]: binds
3 | STAT3, endogenous in SW480 (from UniProt P40763 1-770) |  |  | binds | 
4 | Yes-1, endogenous in SW480 (from UniProt P07947 1-543) (enzyme) |  |  | binds | 

Further lines, with some results ahead:

Row | binding [3] | binding [4] | Substance | binding [1] | also measured
5 | binds | binds | pY1068 EGFR (activated EGFR), nuclear fraction of SW480 (from UniProt P00533 25-1210) (receptor) |  | 
6 | binds | binds | pY705 STAT3 (activated STAT3), nuclear fraction of SW480 (from UniProt P40763 1-770) |  | 
